Binding data for two molecules are collected here from publication PMC10618185.

For this assay, the target named is T1, Myc-VPS41 (human (cDNA from HeLa Kyoto cells)), P49754.
T1 chain: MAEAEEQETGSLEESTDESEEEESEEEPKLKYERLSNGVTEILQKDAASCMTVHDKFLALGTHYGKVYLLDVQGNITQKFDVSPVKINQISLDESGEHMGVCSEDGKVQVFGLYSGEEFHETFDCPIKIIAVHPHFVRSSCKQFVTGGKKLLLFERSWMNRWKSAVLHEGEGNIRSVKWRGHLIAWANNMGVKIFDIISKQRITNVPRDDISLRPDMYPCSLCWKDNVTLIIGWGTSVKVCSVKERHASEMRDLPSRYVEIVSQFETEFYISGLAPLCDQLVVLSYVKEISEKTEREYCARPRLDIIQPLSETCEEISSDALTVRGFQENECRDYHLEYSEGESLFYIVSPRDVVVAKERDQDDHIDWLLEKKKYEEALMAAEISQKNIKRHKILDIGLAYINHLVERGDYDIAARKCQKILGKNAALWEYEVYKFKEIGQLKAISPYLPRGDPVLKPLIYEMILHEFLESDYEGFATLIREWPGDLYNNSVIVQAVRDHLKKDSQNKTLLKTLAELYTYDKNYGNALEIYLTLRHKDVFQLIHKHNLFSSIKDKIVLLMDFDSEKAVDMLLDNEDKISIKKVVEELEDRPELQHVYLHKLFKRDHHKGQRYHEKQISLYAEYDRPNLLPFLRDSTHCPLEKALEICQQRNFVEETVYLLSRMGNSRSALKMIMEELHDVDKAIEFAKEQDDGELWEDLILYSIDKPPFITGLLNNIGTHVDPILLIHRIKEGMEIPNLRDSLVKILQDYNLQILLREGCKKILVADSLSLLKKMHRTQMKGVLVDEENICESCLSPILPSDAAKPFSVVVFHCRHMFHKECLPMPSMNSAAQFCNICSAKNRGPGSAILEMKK
In words: affinity purification with mass spectrometry; WT HeLa cells with single expression of Myc- or HA-tagged bait; IP with anti-Myc or anti-HA antibodies and magnetic beads; eluate resolved by SDS-PAGE, in-gel trypsin digestion, LC-MS/MS (MASCOT, Scaffold 5); high probability threshold. The settings on record: remark: other sources report otherwise.

No constants are given. Whether binding was seen depends on the method and setting. Binding seen in cells or lysates may run through a third protein. A yes stands for co-enrichment or nearness to the bait. Other partners may have been found. A no says only that the protein was not detected with the bait. Where a sequence is shown, tags or fusion partners need not be part of it.

B1: endogenous VPS8, Q8N3P4 1-1428 (protein)
chain: MENEPDHENVEQSLCAKTSEEELNKSFNLEASLSKFSYIDMDKELEFKNDLIDDKEFDIPQVDTPPTLESILNETDDEDESFILEDPTLLNIDTIDSHSYDTSSVASSDSGDRTNLKRKKKLPDSFSLHGSVMRHSLLKGISAQIVSAADKVDAGLPTAIAVSSLIAVGTSHGLALIFGKDQNQALRLCLGSTSVGGQYGAISALSINNDCSRLLCGFAKGQITMWDLASGKLLRSITDAHPPGTAILHIKFTDDPTLAICNDSGGSVFELTFKRVMGVRTCESRCLFSGSKGEVCCIEPLHSKPELKDHPITQFSLLAMASLTKILVIGLKPSLKVWMTFPYGRMDPSSVPLLAWHFVAVQNYVNPMLAFCRGDVVHFLLVKRDESGAIHVTKQKHLHLYYDLINFTWINSRTVVLLDSVEKLHVIDRQTQEELETVEISEVQLVYNSSHFKSLATGGNVSQALALVGEKACYQSISSYGGQIFYLGTKSVYVMMLRSWRERVDHLLKQDCLTEALALAWSFHEGKAKAVVGLSGDASKRKAIVADRMVEILFHYADRALKKCPDQGKIQVMEQHFQDMVPVIVDYCLLLQRKDLLFSQMYDKLSENSVAKGVFLECLEPYILSDKLVGITPQVMKDLIVHFQDKKLMENVEALIVHMDITSLDIQQVVLMCWENRLYDAMIYVYNRGMNEFISPMEKLFRVIAPPLNAGKTLTDEQVVMGNKLLVYISCCLAGRAYPLGDIPEDLVPLVKNQVFEFLIRLHSAEASPEEEIYPYIRTLLHFDTREFLNVLALTFEDFKNDKQAVEYQQRIVDILLKVMVENSDFTPSQVGCLFTFLARQLAKPDNTLFVNRTLFDQVLEFLCSPDDDSRHSERQQVLLELLQAGGIVQFEESRLIRMAEKAEFYQICEFMYEREHQYDKIIDCYLRDPLREEEVFNYIHNILSIPGHSAEEKQSVWQKAMDHIEELVSLKPCKAAELVATHFSGHIETVIKKLQNQVLLFKFLRSLLDPREGIHVNQELLQISPCITEQFIELLCQFNPTQVIETLQVLECYRLEETIQITQKYQLHEVTAYLLEKKGDIHGAFLIMLERLQSKLQEVTHQGENTKEDPSLKDVEDTMVETIALCQRNSHNLNQQQREALWFPLLEAMMAPQKLSSSAIPHLHSEALKSLTMQVLNSMAAFIALPSILQRILQDPVYGKGKLGEIQGLILGMLDTFNYEQTLLETTTSLLNQDLHWSLCNLRASVTRGLNPKQDYCSICLQQYKRRQEMADEIIVFSCGHLYHSFCLQNKECTVEFEGQTRWTCYKCSSSNKVGKLSENSSEIKKGRITPSQVKMSPSYHQSKGDPTAKKGTSEPVLDPQQIQAFDQLCRLYRGSSRLALLTELSQNRSSESYRPFSGSQSAPAFNSIFQNENFQLQLIPPPVTED
Take B1: the binding result is “no binding”.

B2: endogenous VPS3, Q8WUH2 1-860 (protein)
chain: MMSIKAFTLVSAVERELLMGDKERVNIECVECCGRDLYVGTNDCFVYHFLLEERPVPAGPATFTATKQLQRHLGFKKPVNELRAASALNRLLVLCDNSISLVNMLNLEPVPSGARIKGAATFALNENPVSGDPFCVEVCIISVKRRTIQMFLVYEDRVQIVKEVSTAEQPLAVAVDGHFLCLALTTQYIIHNYSTGVSQDLFPYCSEERPPIVKRIGRQEFLLAGPGGLGMFATVAGISQRAPVHWSENVIGAAVSFPYVIALDDEFITVHSMLDQQQKQTLPFKEGHILQDFEGRVIVATSKGVYILVPLPLEKQIQDLLASRRVEEALVLAKGARRNIPKEKFQVMYRRILQQAGFIQFAQLQFLEAKELFRSGQLDVRELISLYPFLLPTSSSFTRSHPPLHEYADLNQLTQGDQEKMAKCKRFLMSYLNEVRSTEVANGYKEDIDTALLKLYAEADHDSLLDLLVTENFCLLTDSAAWLEKHKKYFALGLLYHYNNQDAAAVQLWVNIVNGDVQDSTRSDLYEYIVDFLTYCLDEELVWAYADWVLQKSEEVGVQVFTKRPLDEQQKNSFNPDDIINCLKKYPKALVKYLEHLVIDKRLQKEEYHTHLAVLYLEEVLLQRASASGKGAEATETQAKLRRLLQKSDLYRVHFLLERLQGAGLPMESAILHGKLGEHEKALHILVHELQDFAAAEDYCLWCSEGRDPPHRQQLFHTLLAIYLHAGPTAHELAVAAVDLLNRHATEFDAAQVLQMLPDTWSVQLLCPFLMGAMRDSIHARRTMQVALGLARSENLIYTYDKMKLKGSSIQLSDKKLCQICQNPFCEPVFVRYPNGGLVHTHCAASRHTNPSSSSPGTRT
For the molecule B2, the binding result is recorded as “binds”.
